# Measurements: PubChem BioAssay AID2417 (National Center for Advancing Translational Sciences (NCATS), 2010)
# Screen size: about 140,000 compounds; about 4,300 (3.1%) were called active. This list was built around the results that the source calls inconclusive (neither active nor inactive); the mix of calls is not that of the screen.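 How the source made its calls: active means readout at or below -70, meaning at least 70% loss of cells showing the perinucleolar compartment, a nuclear body marking cancer cells; inconclusive means readout between -30 and a set limit; inactive means the rest.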
# Assay: High Content Assay for Compounds that inhibit the Assembly of the Perinucleolar Compartment;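 further: plate controls were DMSO wells for no effect and camptothecin positive control wells for full effect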
# Conditions: PC3M PTB-GFP, PNC prevalence imaging, 16 h; at 10 µM; hits give low values
# Method in brief: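 Read-out is percentage of cells bearing a perinucleolar compartment, from automated 20x imaging of fixed, Hoechst-stained PC3M PTB-GFP cells. Cells were seeded 4 h, then exposed 16 h to compound (23 nl of library stock) in duplicate plates.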
row,Structure (SMILES),"activity change (PNC), negative = inhibition"
1,Cc1ccc(/C=N/n2cnc3sc(-c4ccccc4)cc3c2=O)o1,inactive: -11.7%
2,COc1ccc(NC(=O)CC2C(=O)N(C)C(=S)N2CCc2ccccc2)cc1 (centres undefined),inconclusive: -32.1%
3,COc1ccc(C(=O)Nn2c(SCc3ccc([N+](=O)[O-])cc3)nc3ccccc3c2=O)cc1,inconclusive: -72.9%
4,COc1ccc(OC)c(N2CC(O)=C(c3nc4ccccc4s3)C2=N)c1,inconclusive: -40.4%
5,CCn1c(SCC(=O)Nc2ccc(S(N)(=O)=O)cc2)nnc1-c1cccc(OC)c1,inactive: 16.6%
6,NC(=O)[C@@H]1CCCNc2c(I)cc([N+](=O)[O-])cc2C(=O)N[C@@H](Cc2ccccc2)C(=O)N[C@@H](Cc2cnc[nH]2)C(=O)N1,inconclusive: -38.8%
7,C=CCn1c(COc2ccccc2)nnc1SCC(=O)Nc1ccc2c(c1)OCCO2,inconclusive: -40.5%
8,Cc1nc2sc(C(c3ccco3)N3CCOCC3)c(O)n2n1 (centres undefined),inconclusive: -48.8%
9,C(=N/Nc1cc(N2CCOCC2)nc(N2CCOCC2)n1)/c1ccccc1,inconclusive: -48.2%
10,COc1ccc(Nc2nc(S(=O)(=O)c3ccc(C)cc3)c(Cl)s2)cc1,inconclusive: -45.2%
11,CNC(=O)CSCc1cnn(-c2ccccc2)c1-n1cccc1,inconclusive: -54.7%
12,Cc1ccc2cccc(S(=O)(=O)NC3CCS(=O)(=O)C3)c2n1 (centres undefined),inconclusive: -44.1%
13,CCOC(=O)NC(Nc1nc2ccccc2s1)(C(=O)OCC)C(F)(F)F (centres undefined),inactive: 3.37%
14,CCC(C)NC(=O)C1(C)CCC(=O)N1Cc1ccccc1OC (centres undefined),inconclusive: -78.2%
15,COC(=O)c1cn(NC(=O)c2cc(OC)c(OC)c(OC)c2)c(=O)c2ccccc12,inconclusive: -38%
16,COc1cccc(-n2nnnc2SCC(=O)Nc2cccc(NC(C)=O)c2)c1,inactive: -14.5%
17,CCN(CC)S(=O)(=O)c1ccc(NC2CCCc3ccccc32)nc1 (centres undefined),active: -100%
18,Nc1ccc(S(=O)(=O)NC(=O)c2ccccc2)cc1,inconclusive: -73.6%
19,O=C(O)CSCC(=O)NCc1ccccc1,inactive: 6.15%
20,CCOc1ccc(NC(=S)N2CCC(C(O)(c3ccccc3)c3ccccc3)CC2)cc1,inconclusive: -42.3%
21,NNC(=O)CN1C(c2ccc(Cl)cc2)=Nc2ccc(Br)cc2C1c1ccccc1 (centres undefined),inconclusive: -67.4%
22,CCOC(=O)CC1=C(C(=O)OCC)C(c2cccs2)C(C#N)=C(N)O1 (centres undefined),inactive: -10.2%

row,Structure (SMILES),"activity change (PNC), negative = inhibition"
1,COc1cc(OC)cc(C(=O)Nc2ccccc2N2CCOCC2)c1,inactive: 28.9%
2,COc1ccccc1CN(Cc1cc2cc(C)ccc2[nH]c1=O)Cc1nnnn1Cc1ccco1,inactive: -2.27%
3,COCCn1cnc2c1c(=O)n(CC(=O)OCC(=O)NCC(F)(F)F)c(=O)n2Cc1ccccc1,inconclusive: -64.7%
4,O=C(NC1CCCCC1)c1cc([N+](=O)[O-])[nH]n1,inconclusive: -46.7%
5,O=C(N/N=C\c1ccc(-c2ccccc2[N+](=O)[O-])o1)C1COc2ccccc2O1 (centres undefined),inconclusive: -48.9%
6,Cn1cnnc1SCc1ccc(C(=O)N=Nc2c(O)n(C)c3ccccc23)cc1,inactive: -21%
7,O=C(Nc1cccc2ccccc12)NC1CCCc2ccccc21 (centres undefined),inconclusive: -42%
8,C=CCOc1ccc(/C=N/NC(=O)C(=O)Nc2ccccn2)cc1OC,inconclusive: -69.7%
9,CCn1c(SCC(=O)Nc2nc(C)cs2)nnc1C(NC(=O)c1ccccc1Cl)C(C)C (centres undefined),inconclusive: -38.9%
10,Cc1ccc(C(=O)Nc2ccccc2C(=O)N2CCCC2)cc1[N+](=O)[O-],inactive: -8.19%
11,O=C(NCc1cccnc1)c1ccc(Cl)cc1[N+](=O)[O-],inconclusive: -30.7%
12,O=C(Nc1ccc2c(c1)OCCO2)C1CCN(c2nnnn2-c2ccccc2)CC1,inconclusive: -45.6%
13,C[N+](C)(C)CCOP(=O)(O)OP(=O)([O-])OC[C@H]1O[C@@H](n2ccc(N)nc2=O)[C@H](O)[C@@H]1O,active: -105%
14,COc1ccc(-c2cc(C(=O)N3CCOCC3)no2)cc1OC,inactive: -8.52%
15,CC1=C(C(=O)OCCc2ccccc2)C(c2ccsc2)NC(=O)N1C (centres undefined),inconclusive: -65.2%
16,CCC1=NN(C(=O)Cc2ccc([N+](=O)[O-])cc2)C(O)(c2ccc(Br)cc2)C1 (centres undefined),inactive: 99.6%
17,COc1cccc2cc(C(C)=O)c(=O)oc12,inactive: -23.7%
18,COC(=O)c1ccccc1N(C)C(=O)C12CCC(C)(C(=O)O1)C2(C)C (centres undefined),inconclusive: -60.9%
19,COc1ccc(/C=N/NC(=O)c2nonc2C)cc1,inconclusive: -69.6%
20,CC(C)(C)c1nnc2sc(SCC(=O)c3ccccc3)nn2c1=O,inactive: 15.7%
21,C=C(CC)C(=O)c1ccc(OCC(=O)O)c(Cl)c1Cl,inactive: 77.3%
22,COC(=O)c1cc(OC)c(OC)cc1NC(=O)CCCCCN1C(=O)CCC1=O,inactive: 1.17%

# Rewritten bar-delimited: 2 of the compounds above
row | Structure (SMILES) | activity change (PNC), negative = inhibition
5 | O=C(N/N=C\c1ccc(-c2ccccc2[N+](=O)[O-])o1)C1COc2ccccc2O1 (centres undefined) | inconclusive: -48.9%
6 | Cn1cnnc1SCc1ccc(C(=O)N=Nc2c(O)n(C)c3ccccc23)cc1 | inactive: -21%
